Test results from the supplement of paper PMC6411743.
± gives the standard deviation of the averaged measurements. This is a selection; strong and weak results do not stand in their true shares. Most values lie at the level of the controls, where differences are scatter.

Sequences of proteins named here, by UniProt entry; tags and fusion partners are left off. A change or cut given only in a name is not applied to a line headed by its entry.
UniProt Q8IXQ4: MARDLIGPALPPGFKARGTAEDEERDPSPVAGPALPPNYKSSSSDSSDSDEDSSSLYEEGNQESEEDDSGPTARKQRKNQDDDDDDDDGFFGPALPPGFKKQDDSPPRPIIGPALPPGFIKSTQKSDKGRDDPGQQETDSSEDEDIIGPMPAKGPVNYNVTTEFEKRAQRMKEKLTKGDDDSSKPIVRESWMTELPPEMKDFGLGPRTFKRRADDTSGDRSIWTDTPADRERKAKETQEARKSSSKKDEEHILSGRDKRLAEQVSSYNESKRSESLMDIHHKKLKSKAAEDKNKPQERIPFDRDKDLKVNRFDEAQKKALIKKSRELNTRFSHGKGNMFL
UniProt Q9Y240: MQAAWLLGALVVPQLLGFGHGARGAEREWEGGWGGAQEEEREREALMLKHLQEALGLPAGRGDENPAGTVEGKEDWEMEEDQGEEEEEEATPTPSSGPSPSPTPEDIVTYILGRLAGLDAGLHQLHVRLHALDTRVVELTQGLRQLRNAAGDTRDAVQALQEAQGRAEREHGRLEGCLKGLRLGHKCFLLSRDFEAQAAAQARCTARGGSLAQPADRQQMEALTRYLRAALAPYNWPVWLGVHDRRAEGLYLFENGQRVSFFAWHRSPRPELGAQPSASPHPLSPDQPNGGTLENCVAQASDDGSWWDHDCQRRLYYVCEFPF
UniProt Q6UXD5: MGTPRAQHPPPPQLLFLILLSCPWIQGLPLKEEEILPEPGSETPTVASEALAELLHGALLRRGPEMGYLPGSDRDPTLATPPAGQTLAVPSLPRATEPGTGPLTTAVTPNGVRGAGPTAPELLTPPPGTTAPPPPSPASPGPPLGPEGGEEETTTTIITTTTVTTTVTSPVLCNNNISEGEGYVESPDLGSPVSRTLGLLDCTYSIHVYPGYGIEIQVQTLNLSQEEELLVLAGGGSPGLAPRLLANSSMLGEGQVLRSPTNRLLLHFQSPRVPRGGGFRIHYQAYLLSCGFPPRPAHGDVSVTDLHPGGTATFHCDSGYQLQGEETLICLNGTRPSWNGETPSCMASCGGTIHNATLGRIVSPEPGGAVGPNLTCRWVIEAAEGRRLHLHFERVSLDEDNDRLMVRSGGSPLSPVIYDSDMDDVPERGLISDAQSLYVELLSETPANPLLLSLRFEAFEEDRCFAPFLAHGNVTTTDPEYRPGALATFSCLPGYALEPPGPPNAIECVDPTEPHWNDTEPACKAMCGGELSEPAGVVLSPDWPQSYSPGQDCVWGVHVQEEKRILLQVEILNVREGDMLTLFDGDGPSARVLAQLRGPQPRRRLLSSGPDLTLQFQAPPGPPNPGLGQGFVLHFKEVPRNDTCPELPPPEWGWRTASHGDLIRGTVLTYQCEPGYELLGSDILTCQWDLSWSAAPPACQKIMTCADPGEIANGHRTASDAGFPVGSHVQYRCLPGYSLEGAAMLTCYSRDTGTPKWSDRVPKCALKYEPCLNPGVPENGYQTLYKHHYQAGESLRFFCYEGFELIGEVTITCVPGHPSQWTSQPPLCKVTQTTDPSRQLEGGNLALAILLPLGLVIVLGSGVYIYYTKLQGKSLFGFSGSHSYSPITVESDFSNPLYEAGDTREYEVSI
UniProt O43681: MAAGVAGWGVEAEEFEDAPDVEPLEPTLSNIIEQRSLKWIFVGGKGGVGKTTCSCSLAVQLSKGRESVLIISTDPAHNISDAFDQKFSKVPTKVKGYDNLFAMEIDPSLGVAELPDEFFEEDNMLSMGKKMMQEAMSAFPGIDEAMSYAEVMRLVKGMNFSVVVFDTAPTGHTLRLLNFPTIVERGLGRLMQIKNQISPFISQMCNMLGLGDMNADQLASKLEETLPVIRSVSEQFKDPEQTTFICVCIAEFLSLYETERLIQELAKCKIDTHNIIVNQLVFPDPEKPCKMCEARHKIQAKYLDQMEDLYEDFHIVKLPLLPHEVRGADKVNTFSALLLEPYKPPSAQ
UniProt Q96RT8, whole entry: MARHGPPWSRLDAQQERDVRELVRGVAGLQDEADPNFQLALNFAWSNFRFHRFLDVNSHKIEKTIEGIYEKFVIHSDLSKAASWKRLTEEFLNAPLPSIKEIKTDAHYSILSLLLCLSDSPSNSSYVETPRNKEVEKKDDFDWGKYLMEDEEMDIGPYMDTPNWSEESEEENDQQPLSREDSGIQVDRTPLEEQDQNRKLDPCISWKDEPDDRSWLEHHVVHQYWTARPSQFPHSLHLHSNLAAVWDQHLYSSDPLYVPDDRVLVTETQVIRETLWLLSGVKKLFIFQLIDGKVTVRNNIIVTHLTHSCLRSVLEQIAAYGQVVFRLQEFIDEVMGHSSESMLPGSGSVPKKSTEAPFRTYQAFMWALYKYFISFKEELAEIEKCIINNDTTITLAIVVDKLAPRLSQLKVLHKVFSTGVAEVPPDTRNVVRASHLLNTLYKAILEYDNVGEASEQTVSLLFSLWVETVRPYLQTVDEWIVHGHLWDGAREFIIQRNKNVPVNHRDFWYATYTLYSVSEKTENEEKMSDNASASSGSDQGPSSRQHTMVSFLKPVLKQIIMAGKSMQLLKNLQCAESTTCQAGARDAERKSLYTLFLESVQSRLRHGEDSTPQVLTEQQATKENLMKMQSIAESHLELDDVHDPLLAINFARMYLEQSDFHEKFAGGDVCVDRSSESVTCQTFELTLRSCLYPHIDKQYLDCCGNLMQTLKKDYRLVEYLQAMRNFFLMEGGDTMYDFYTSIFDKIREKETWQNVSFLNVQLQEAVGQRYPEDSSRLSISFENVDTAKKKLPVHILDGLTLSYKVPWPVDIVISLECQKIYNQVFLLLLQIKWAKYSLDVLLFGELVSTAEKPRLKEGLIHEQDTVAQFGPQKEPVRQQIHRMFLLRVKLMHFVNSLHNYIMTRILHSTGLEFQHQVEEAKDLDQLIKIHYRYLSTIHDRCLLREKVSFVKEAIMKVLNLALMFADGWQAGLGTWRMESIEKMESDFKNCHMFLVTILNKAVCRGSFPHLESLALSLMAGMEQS
UniProt P49459, whole entry: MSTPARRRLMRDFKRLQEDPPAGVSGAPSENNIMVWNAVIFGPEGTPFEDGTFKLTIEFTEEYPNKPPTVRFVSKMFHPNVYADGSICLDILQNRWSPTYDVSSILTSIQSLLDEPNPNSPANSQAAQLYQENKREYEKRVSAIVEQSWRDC
UniProt P28370, whole entry: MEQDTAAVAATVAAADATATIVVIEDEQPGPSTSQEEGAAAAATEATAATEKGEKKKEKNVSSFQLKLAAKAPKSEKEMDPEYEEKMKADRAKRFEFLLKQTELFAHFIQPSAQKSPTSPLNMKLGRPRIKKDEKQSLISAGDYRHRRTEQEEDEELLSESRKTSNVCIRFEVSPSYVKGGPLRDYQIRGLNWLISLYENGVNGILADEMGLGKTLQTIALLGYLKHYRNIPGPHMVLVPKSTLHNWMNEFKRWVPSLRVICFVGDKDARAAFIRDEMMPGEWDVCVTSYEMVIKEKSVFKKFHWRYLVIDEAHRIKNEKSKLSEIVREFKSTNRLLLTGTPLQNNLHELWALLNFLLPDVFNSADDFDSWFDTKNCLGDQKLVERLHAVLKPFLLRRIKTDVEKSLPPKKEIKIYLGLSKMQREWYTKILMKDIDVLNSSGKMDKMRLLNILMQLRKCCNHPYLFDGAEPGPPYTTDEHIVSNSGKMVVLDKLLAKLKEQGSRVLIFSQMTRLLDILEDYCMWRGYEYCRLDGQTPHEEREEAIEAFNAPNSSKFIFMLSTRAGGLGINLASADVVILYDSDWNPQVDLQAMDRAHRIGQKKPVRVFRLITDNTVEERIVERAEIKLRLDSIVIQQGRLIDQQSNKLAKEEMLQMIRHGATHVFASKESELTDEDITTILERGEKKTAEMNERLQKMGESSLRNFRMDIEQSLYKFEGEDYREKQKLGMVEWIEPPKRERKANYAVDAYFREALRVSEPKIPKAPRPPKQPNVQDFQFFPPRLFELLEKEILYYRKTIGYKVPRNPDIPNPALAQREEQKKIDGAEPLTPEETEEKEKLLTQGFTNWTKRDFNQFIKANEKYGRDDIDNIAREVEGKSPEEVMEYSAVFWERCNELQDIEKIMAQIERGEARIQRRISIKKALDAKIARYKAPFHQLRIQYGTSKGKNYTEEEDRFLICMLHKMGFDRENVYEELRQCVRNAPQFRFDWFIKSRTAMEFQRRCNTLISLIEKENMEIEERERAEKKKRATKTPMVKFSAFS
UniProt Q6NVY1: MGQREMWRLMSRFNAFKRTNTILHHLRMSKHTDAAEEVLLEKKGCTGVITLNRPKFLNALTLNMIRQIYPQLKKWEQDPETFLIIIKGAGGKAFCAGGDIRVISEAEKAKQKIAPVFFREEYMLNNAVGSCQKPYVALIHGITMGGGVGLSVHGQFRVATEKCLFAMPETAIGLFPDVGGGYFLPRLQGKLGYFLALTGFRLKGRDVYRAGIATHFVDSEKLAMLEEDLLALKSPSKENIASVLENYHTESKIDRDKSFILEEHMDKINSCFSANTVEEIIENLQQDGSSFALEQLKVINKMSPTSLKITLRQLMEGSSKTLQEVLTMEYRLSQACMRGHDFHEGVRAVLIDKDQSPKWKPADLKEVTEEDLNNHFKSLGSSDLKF
UniProt P31641: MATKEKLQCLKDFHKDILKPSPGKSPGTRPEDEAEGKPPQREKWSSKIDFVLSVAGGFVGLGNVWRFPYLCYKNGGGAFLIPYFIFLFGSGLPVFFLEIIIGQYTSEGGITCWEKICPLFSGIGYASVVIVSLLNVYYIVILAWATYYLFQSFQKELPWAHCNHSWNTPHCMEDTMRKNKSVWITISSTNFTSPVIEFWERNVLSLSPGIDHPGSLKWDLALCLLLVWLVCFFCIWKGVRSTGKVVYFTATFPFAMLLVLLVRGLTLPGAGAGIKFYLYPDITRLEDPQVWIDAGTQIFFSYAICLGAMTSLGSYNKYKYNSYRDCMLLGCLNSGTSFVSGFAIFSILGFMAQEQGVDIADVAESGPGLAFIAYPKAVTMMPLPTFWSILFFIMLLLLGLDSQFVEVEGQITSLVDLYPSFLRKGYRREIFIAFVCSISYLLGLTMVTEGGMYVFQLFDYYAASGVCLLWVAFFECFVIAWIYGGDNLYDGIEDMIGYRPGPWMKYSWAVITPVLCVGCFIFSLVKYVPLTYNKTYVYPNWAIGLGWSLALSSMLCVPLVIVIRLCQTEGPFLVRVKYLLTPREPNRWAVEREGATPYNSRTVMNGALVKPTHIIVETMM
UniProt O94953: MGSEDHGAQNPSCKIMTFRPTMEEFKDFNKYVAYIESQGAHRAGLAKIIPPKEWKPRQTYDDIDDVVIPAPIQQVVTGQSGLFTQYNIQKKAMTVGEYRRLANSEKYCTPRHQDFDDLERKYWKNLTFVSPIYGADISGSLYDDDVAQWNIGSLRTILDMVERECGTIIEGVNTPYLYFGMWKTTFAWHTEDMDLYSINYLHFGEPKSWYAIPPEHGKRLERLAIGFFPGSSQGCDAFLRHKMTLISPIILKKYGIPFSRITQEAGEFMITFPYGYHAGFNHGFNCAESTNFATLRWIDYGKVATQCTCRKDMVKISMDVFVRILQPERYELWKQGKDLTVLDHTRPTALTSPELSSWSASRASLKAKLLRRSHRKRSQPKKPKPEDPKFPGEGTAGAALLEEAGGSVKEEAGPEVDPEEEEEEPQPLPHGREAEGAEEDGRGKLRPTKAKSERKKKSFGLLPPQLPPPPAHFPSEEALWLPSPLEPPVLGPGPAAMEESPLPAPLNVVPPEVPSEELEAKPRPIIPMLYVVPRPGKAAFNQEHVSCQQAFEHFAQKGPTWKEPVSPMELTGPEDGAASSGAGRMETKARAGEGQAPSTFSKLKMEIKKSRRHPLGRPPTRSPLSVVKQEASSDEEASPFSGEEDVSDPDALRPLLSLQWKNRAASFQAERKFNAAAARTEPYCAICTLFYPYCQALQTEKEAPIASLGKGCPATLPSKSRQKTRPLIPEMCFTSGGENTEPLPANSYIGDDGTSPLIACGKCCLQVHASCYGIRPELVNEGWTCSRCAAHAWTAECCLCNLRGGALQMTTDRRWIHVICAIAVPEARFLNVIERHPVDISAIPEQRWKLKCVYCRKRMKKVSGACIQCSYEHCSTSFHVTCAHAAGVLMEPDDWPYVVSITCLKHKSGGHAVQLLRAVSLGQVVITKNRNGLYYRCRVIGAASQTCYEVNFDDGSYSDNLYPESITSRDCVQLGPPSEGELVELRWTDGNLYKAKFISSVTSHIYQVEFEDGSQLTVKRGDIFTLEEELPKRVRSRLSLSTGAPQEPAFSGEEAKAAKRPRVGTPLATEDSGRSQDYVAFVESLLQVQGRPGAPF
UniProt P09326: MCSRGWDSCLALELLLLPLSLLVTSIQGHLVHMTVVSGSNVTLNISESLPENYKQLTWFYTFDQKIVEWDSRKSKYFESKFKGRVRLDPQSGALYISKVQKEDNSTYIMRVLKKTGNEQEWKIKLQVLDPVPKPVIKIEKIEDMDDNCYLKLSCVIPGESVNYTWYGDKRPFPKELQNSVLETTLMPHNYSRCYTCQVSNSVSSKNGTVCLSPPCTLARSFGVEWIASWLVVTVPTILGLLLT

Compound: Nc1ncnc2c1ncn2[C@@H]1O[C@H](COP(=O)(O)OP(=O)(O)NP(=O)(O)O)[C@@H](O)[C@H]1O [adenylyl imidodiphosphate]
Test: NP40-soluble protein abundance relative to vehicle (solubility fold change) (ratio); higher = more soluble protein in presence of AMP-PNP
Outline: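 Data come from three independent experiments in which Dounce-homogenised Jurkat crude lysate was treated at eight concentrations from 0.1 to 10 mM. Treatment ran 10 min at room temperature and then 3 min at 37 °C, after which 0.8% NP40 and benzonase were added for 60 min at 4 °C before ultracentrifugation. The supernatant underwent TMT labelling and LC-MS/MS, and vsn-normalised intensities were expressed as fold change against the detergent-processed vehicle in each replicate.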

Target	NP40-soluble protein abundance (concentration: 0.1mM)	NP40-soluble protein abundance (concentration: 0.5mM)
A0A087WXK1|D6REL5 and related entries (UniProt Q6UWZ7)	1.01 ± 0.074	0.976 ± 0.016
A0A0G2JHC2|Q6NYC8 (UniProt Q6NYC8)	1.01 ± 0.024	1.04 ± 0.039
A0A0A0MRR7|P09234 (UniProt P09234)	0.959 ± 0.028	1.02 ± 0.029
A0A0A0MRI1|Q8IXQ4 (UniProt Q8IXQ4)	0.994 ± 0.022	1.06 ± 0.08
A0A0A6YY95|Q9Y240 (UniProt Q9Y240)	1 ± 0.019	0.993 ± 0.04
A0A087WYL5|Q6UXD5-3|Q6UXD5-5|Q6UXD5-6|Q6UXD5 and related entries (UniProt Q6UXD5)	0.977 ± 0.013	0.991 ± 0.014
A0A087WXS7|O43681 (UniProt O43681)	0.954 ± 0.027	0.947 ± 0.044
A0A087X1Z1|A0A0G2JPW5|A0A0G2JQX1|A0A0G2JSA7|Q96RT8 and related entries (UniProt Q96RT8)	1.006 ± 0.0012	1.01 ± 0.056
A0A0A0MQS0|A8MW92 and related entries (UniProt A8MW92)	0.942 ± 0.036	0.977 ± 0.058
A0A087WY55|Q9NP79 (UniProt Q9NP79)	1.01 ± 0.066	1.05 ± 0.12
A0A0D9SG71|P49459 (UniProt P49459)	1.02 ± 0.029	1.02 ± 0.039
A0A087WXP7|Q9H2P9 and related entries (UniProt Q9H2P9)	0.961 ± 0.0038	0.995 ± 0.025
A0A0X1KG71|Q8WX92 (UniProt Q8WX92)	0.995 ± 0.022	1.01 ± 0.039
A0A087WXD1|Q96T83 (UniProt Q96T83)	0.98 ± 0.039	0.987 ± 0.039
A0A0A0MRP6|B7ZLQ5 and related entries (UniProt P28370)	1.03 ± 0.086	1 ± 0.046
A0A0C3SFZ9|M0QZI3 and related entries (UniProt O14526)	0.99 ± 0.037	0.987 ± 0.045
A0A087X1K9|O75608 and related entries (UniProt O75608)	0.9658 ± 0.0051	0.978 ± 0.02
MEX3A (UniProt A1L020)	1 ± 0.012	0.984 ± 0.027
A0A087WXI1|Q6NVY1 (UniProt Q6NVY1)	1.01 ± 0.021	1.01 ± 0.035
A0A0J9YWD5|A0A0J9YYB5|B7ZM65 and related entries (UniProt Q9P1Y6)	0.997 ± 0.059	0.977 ± 0.018
A0A0A0MRB7|P15923-2|X6REB3 (UniProt P15923)	0.976 ± 0.018	0.985 ± 0.047

Target	NP40-soluble protein abundance (concentration: 0.1mM)	NP40-soluble protein abundance (concentration: 0.5mM)
A0A0A0MQS2|F5H0Q6 (UniProt Q8N2M8)	0.977 ± 0.061	1.02 ± 0.065
A0A087WY96|P31641 (UniProt P31641)	1 ± 0.013	1.04 ± 0.018
A0A0A6YY92|P30566 (UniProt P30566)	0.995 ± 0.044	0.99 ± 0.055
A0A087WWW9|O95999 (UniProt O95999)	0.97 ± 0.035	0.989 ± 0.032
A0A0G2JH68 (UniProt O60610)	0.997 ± 0.0092	1.01 ± 0.018
A0A0C4DGZ1|Q8N5P1 (UniProt Q8N5P1)	0.9805 ± 0.0034	1.01 ± 0.097
A0A0C4DFL8|F5GX28 and related entries (UniProt O94953)	0.997 ± 0.033	0.996 ± 0.046
A0A0U1RR27|Q7Z401 and related entries (UniProt Q7Z401)	1.131 ± 0.011	1.01 ± 0.034
A0A0J9YW33|Q13277 and related entries (UniProt Q13277)	0.997 ± 0.051	1.02 ± 0.082
A0A140T998|P28062 and related entries (UniProt X5D2R7+Q5JNW7+P28062)	1.02 ± 0.032	1 ± 0.066
A0A087X1S7|P09326 (UniProt P09326)	0.975 ± 0.017	0.9843 ± 0.0087
A0A0J9YW36|Q9NZ72 and related entries (UniProt Q9NZ72)	0.969 ± 0.021	0.981 ± 0.029
A0A0D9SF54|A0A0D9SGF6|Q13813 and related entries (UniProt Q13813)	0.976 ± 0.022	1.03 ± 0.026
A0A0B4J2A4|K7EME0 and related entries (UniProt P42765)	0.984 ± 0.011	1.01 ± 0.032
A0A087X1K6|H0YK05 and related entries (UniProt Q9Y2Y9)	1.05 ± 0.04	0.979 ± 0.031
A0A0C4DFN1|Q8IWA4 (UniProt Q8IWA4)	0.991 ± 0.036	0.997 ± 0.043
A0A0A6YYG7|Q6IBW4 and related entries (UniProt Q6IBW4)	0.975 ± 0.043	1.01 ± 0.083
A0A087X1N2|Q03701 (UniProt Q03701)	1.01 ± 0.032	1.01 ± 0.034
A0A0A0MS41|Q9BWM7 (UniProt Q9BWM7)	1.01 ± 0.026	0.986 ± 0.036
A0A0A0MSI2|B3KPJ4 and related entries (UniProt Q8IXK0)	0.998 ± 0.03	1.01 ± 0.026
A0A0C4DG78|M0R3C6 and related entries (UniProt Q8TBC5)	1.01 ± 0.017	1.03 ± 0.02

A few values from above:
Under NP40-soluble protein abundance (concentration: 0.5mM), A0A087WY96|P31641 (UniProt P31641) shows 1.04 ± 0.018
Under NP40-soluble protein abundance (concentration: 0.5mM), A0A087WXK1|D6REL5 and related entries (UniProt Q6UWZ7) shows 0.976 ± 0.016
